Experimental data: PubChem BioAssay AID504793 (Drosophila RNAi Screening Center, 2011)
Aim: 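Genes required for cells to halt at G2/M after double-strand DNA breaks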 (primary screen). System: Drosophila S2R+ cells. Reagent: long dsRNA against Drosophila genes, about 0.25 µg dsRNA per well. Time to read-out: 4 days of dsRNA, then 4 hours of drug before read-out. Treatment: doxorubicin 0.5 µM for 4 hours to cause double-strand breaks, in cells also given a low, harmless dose of dsRNA against nbs to sensitise the assay. Detection: 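Mitotic index as the number of phospho-histone H3-positive cells in each well following doxorubicin, given as raw counts without normalisation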. Scale: mitotic cells: higher = more cells in mitosis, weaker G2 arrest. Call rule: 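Genes are called active only when high mitotic counts were reproduced with independent dsRNAs and mitosis was checked for delay without damage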. Calls: active = confirmed in follow-up tests; inactive = not confirmed.
The screen tested about 23,000 reagents; shown is an unselected part of those with a known target gene and a result. Over the whole deposit, 62 (0.27%) were called active. 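Calls come from follow-up tests whose scores are not deposited, so confirmed genes may have low counts here; counts are not normalised per plate.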 Raw values are not corrected between plates.

| target | dsRNA | mitotic cells, replicate 1 | mitotic cells, replicate 2 | Call |
| --- | --- | --- | --- | --- |
| CG1582 | DRSC19732 | 5 | – | inactive |
| CG8299 | DRSC07139 | 7 | – | inactive |
| CG8299 | DRSC25580 | 7 | – | inactive |
| CG9948 | DRSC11104 | 7 | – | inactive |
| CG43693 | DRSC09086 | 2 | – | inactive |
| CG43693 | DRSC10625 | 4 | – | inactive |
| kug | DRSC10911 | 4 | – | inactive |
| CG30384 | DRSC06032 | 11 | – | inactive |
| CG33514 | DRSC08471 | 8 | – | inactive |
| CG33514 | DRSC08472 | 6 | – | inactive |
| CG33514 | DRSC21670 | 7 | – | inactive |
| Ugt35A1 | DRSC16892 | 2 | – | inactive |
| Ugt35A1 | DRSC25438 | 8 | – | inactive |
| CG32267 | DRSC21561 | 8 | – | inactive |
| CG32267 | DRSC27104 | 8 | – | inactive |
| CG31286 | DRSC26727 | 7 | – | inactive |
| CG13171 | DRSC06299 | 2 | – | inactive |
| CG15185 | DRSC12565 | 6 | – | inactive |
| CG5196 | DRSC15735 | 8 | – | inactive |
| CG5196 | DRSC26959 | 6 | – | inactive |
| gek | DRSC04688 | 2 | – | inactive |
| Nost | DRSC18037 | 12 | – | inactive |
| Nost | DRSC18338 | 13 | – | inactive |
| Nost | DRSC26627 | 3 | – | inactive |
| Panx | DRSC04563 | 5 | – | inactive |
| CG42843 (retired record) | DRSC02231 | 7 | – | inactive |
| CG42843 (retired record) | DRSC02233 | 2 | – | inactive |
| CG42843 (retired record) | DRSC28467 | 7 | – | inactive |
| Rnp4F | DRSC18706 | 9 | – | inactive |
| Rnp4F | DRSC26480 | 5 | – | inactive |
| CG10936 | DRSC05669 | 8 | – | inactive |
| CG10936 | DRSC05670 | 2 | – | inactive |
| CG10936 | DRSC06018 | 4 | – | inactive |
| Rtel1 | DRSC18343 | 9 | – | inactive |
| Rtel1 | DRSC26293 | 5 | – | inactive |
| CG13318 | DRSC14581 | 5 | – | inactive |
| Tsp2A | DRSC18584 | 14 | – | inactive |
| CG46491 | DRSC06565 | 6 | – | inactive |
| CG46491 | DRSC06566 | 7 | – | inactive |
| CG15879 | DRSC08487 | 3 | – | inactive |
| CG15879 | DRSC27002 | 9 | – | inactive |
| wgn | DRSC19998 | 6 | – | inactive |
| CG14984 | DRSC08442 | 5 | – | inactive |
| CG14984 | DRSC27683 | 4 | – | inactive |
| CG4927 | DRSC06903 | 2 | – | inactive |
| CG4927 | DRSC28614 | 4 | – | inactive |
| CG13840 | DRSC23279 | 10 | – | inactive |
| CG13840 | DRSC28749 | 6 | – | inactive |
| nonA | DRSC20357 | 9 | – | inactive |
| nonA | DRSC27455 | 6 | – | inactive |
| CG13442 | DRSC06402 | 9 | – | inactive |
| CG13442 | DRSC25909 | 5 | – | inactive |
| CG10232 | DRSC14218 | – | – | inactive |
| CG15177 | DRSC12557 | 5 | – | inactive |
| CG15177 | DRSC24687 | 4 | – | inactive |
| CG10984 | DRSC09817 | 9 | – | inactive |
| CG10984 | DRSC28387 | 12 | – | inactive |
| BRWD3 | DRSC15369 | 31 | – | active |
| BRWD3 | DRSC16032 | 27 | – | active |
| spin | DRSC07176 | 10 | – | inactive |
| spin | DRSC22271 | 4 | – | inactive |
| CG33268 | DRSC10143 | 3 | – | inactive |
| Rrp42 | DRSC07161 | 10 | – | inactive |
| CG12279 | DRSC14495 | 5 | – | inactive |
| CG8028 | DRSC20075 | 15 | – | inactive |
| CG14195 | DRSC19550 | 5 | – | inactive |
| Stoml2 | DRSC04326 | 4 | – | inactive |
| Gprk1 | DRSC20732 | 13 | – | inactive |
| Gprk1 | DRSC20916 | 9 | – | inactive |
| CG8841 | DRSC07286 | 4 | – | inactive |
| CG3097 | DRSC18275 | 21 | – | inactive |
| CG15278 | DRSC02481 | 5 | – | inactive |
| CG5618 | DRSC11780 | 5 | – | inactive |
| CG5618 | DRSC28806 | 4 | – | inactive |
| pths | DRSC03171 | 6 | – | inactive |
| Gbeta5 | DRSC17754 | 14 | – | inactive |
| CG14220 | DRSC19577 | 6 | – | inactive |
| CG14220 | DRSC26345 | 6 | – | inactive |
| Cyp4d14 | DRSC18457 | 13 | – | inactive |
| Cyp4d14 | DRSC24460 | 15 | – | inactive |
| SMC2 | DRSC07544 | 9 | – | inactive |
| SMC2 | DRSC29763 | 13 | – | inactive |
| Eig71Eh | DRSC11155 | 6 | – | inactive |
| Muc68E | DRSC09146 | 25 | 14 | inactive |
| Muc68E | DRSC26478 | 13 | – | inactive |
| Acat1 | DRSC17766 | 6 | – | inactive |
| Acat1 | DRSC28395 | 2 | – | inactive |
| Or33a | DRSC03386 | 8 | – | inactive |
| Lcp1Psi | DRSC05105 | 10 | – | inactive |
| Lcp1Psi | DRSC28465 | 8 | – | inactive |
| CG33506 | DRSC05981 | 6 | – | inactive |
| CG9581 | DRSC20695 | 10 | – | inactive |
| CG9581 | DRSC22247 | 2 | – | inactive |
| Sqor | DRSC08453 | 8 | – | inactive |
| Sqor | DRSC27056 | 6 | – | inactive |
| CG15283 | DRSC01980 | 6 | – | inactive |
| wdp | DRSC04367 | 7 | – | inactive |
| wdp | DRSC28581 | 3 | – | inactive |
| CG15800 | DRSC04271 | 8 | – | inactive |
| CG15147 | DRSC02447 | 3 | 8 | inactive |
| CG15147 | DRSC02448 | 3 | – | inactive |
| CG15147 | DRSC27255 | 6 | – | inactive |
| CG14323 | DRSC14802 | 7 | – | inactive |
| CG32773 (retired record) | DRSC17330 | 4 | – | inactive |
| CG42340 | DRSC17458 | 2 | 8 | inactive |
| CG42340 | DRSC17841 | 4 | – | inactive |
| CG42340 | DRSC18305 | 8 | – | inactive |
| CG42340 | DRSC21619 | 11 | – | inactive |
| CG42340 | DRSC23657 | 2 | – | inactive |
| CG14573 | DRSC11734 | 5 | – | inactive |
| CG14573 | DRSC29094 | 10 | – | inactive |

17 of these entries, reformatted:
CG8299 [DRSC07139]
- mitotic cells, replicate 1: 7
- Call: inactive

CG8299 [DRSC25580]
- mitotic cells, replicate 1: 7
- Call: inactive

CG9948 [DRSC11104]
- mitotic cells, replicate 1: 7
- Call: inactive

CG43693 [DRSC09086]
- mitotic cells, replicate 1: 2
- Call: inactive

CG43693 [DRSC10625]
- mitotic cells, replicate 1: 4
- Call: inactive

kug [DRSC10911]
- mitotic cells, replicate 1: 4
- Call: inactive

CG30384 [DRSC06032]
- mitotic cells, replicate 1: 11
- Call: inactive

CG33514 [DRSC08471]
- mitotic cells, replicate 1: 8
- Call: inactive

CG33514 [DRSC08472]
- mitotic cells, replicate 1: 6
- Call: inactive

CG33514 [DRSC21670]
- mitotic cells, replicate 1: 7
- Call: inactive

Ugt35A1 [DRSC16892]
- mitotic cells, replicate 1: 2
- Call: inactive

Ugt35A1 [DRSC25438]
- mitotic cells, replicate 1: 8
- Call: inactive

CG32267 [DRSC21561]
- mitotic cells, replicate 1: 8
- Call: inactive

CG32267 [DRSC27104]
- mitotic cells, replicate 1: 8
- Call: inactive

CG31286 [DRSC26727]
- mitotic cells, replicate 1: 7
- Call: inactive

CG13171 [DRSC06299]
- mitotic cells, replicate 1: 2
- Call: inactive

CG15185 [DRSC12565]
- mitotic cells, replicate 1: 6
- Call: inactive
